Source: US11999957B2, “Method for enhancing vanillin resistance of Saccharomyces cerevisiae by knocking out SNG1 gene” (QILU UNIVERSITY OF TECHNOLOGY, priority 2020, dated 2024)
Values joined by “and” are separate entries in the source; they are usually repeats but may differ in a detail not shown here. Identical values can stand only once.

Tested on: sng1Δ mutant
Test: Vanillin reduction/consumption during shake-flask fermentation (HPLC of extracellular vanillin)
Format: cell-based, Saccharomyces cerevisiae

Compound: COc1cc(C=O)ccc1O [vanillin]
- specific consumption (reduction) rate of vanillin (sng1Δ mutant, SC medium containing 6 mmol/L of vanillin, vanillin reduced to vanillyl alcohol): 0.052 g/g/h
- improvement of specific reduction/consumption rate of vanillin of sng1Δ mutant compared to the control strain (under vanillin stress (6 mmol/L), sng1Δ mutant vs BY4741): 48% and 52%
